# Laboratory results as given in the supplement of paper PMC11732987, “Enantioselective OTUD7B fragment discovery through chemoproteomics screening and high-throughput optimisation” (Communications Chemistry, 2025).
# By UniProt entry, the sequences of proteins in these tests, tags left out. Where a name states a change or a piece, a line headed by the entry shows the natural chain unless it says otherwise.
# UniProt Q9BZR6: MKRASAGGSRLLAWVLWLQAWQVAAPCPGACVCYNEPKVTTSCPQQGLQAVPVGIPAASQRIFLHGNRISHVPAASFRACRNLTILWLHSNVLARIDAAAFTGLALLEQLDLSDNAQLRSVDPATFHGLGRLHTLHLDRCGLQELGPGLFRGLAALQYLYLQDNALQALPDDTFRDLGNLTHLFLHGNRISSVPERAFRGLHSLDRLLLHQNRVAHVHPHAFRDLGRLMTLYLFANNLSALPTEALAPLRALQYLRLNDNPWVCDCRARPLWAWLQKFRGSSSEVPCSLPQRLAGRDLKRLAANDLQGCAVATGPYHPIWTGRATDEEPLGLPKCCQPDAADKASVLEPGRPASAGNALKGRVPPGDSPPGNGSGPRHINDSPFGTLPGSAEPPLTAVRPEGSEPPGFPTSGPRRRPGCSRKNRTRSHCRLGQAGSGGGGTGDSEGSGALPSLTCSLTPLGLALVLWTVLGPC
# UniProt Q8IXW5: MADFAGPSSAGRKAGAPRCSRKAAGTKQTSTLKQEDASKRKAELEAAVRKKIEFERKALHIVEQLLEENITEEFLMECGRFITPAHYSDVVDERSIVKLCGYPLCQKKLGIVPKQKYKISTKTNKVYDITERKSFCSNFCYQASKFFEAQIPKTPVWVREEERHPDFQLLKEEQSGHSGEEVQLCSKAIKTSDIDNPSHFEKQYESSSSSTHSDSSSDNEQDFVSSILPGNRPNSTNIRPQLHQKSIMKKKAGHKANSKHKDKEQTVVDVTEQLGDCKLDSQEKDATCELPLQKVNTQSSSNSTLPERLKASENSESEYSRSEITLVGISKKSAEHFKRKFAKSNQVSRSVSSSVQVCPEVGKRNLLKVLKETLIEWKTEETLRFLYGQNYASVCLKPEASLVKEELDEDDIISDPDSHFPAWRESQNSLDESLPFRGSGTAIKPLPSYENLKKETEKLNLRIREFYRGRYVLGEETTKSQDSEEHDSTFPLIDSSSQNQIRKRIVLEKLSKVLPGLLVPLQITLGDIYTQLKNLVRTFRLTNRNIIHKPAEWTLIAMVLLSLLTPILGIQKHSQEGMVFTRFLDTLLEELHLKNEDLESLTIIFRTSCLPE
# UniProt Q8NCN4: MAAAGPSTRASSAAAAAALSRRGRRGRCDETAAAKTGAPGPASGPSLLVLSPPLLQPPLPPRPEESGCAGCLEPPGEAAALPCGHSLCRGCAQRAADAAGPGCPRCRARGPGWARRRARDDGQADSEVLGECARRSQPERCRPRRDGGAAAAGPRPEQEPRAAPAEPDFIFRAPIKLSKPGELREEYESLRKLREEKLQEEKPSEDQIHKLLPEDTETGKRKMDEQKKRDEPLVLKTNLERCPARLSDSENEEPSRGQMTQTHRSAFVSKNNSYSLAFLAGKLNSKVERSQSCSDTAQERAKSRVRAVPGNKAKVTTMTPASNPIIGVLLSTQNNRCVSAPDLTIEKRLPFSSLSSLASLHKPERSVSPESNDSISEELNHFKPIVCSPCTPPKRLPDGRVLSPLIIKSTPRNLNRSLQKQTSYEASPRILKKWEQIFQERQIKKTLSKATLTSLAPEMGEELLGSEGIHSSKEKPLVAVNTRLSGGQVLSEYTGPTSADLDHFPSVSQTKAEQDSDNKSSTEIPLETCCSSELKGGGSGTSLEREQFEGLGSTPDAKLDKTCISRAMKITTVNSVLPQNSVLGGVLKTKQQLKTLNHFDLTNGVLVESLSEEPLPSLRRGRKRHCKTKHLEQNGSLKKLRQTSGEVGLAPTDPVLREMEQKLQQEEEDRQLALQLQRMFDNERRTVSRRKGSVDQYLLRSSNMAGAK
# UniProt Q9NZJ4: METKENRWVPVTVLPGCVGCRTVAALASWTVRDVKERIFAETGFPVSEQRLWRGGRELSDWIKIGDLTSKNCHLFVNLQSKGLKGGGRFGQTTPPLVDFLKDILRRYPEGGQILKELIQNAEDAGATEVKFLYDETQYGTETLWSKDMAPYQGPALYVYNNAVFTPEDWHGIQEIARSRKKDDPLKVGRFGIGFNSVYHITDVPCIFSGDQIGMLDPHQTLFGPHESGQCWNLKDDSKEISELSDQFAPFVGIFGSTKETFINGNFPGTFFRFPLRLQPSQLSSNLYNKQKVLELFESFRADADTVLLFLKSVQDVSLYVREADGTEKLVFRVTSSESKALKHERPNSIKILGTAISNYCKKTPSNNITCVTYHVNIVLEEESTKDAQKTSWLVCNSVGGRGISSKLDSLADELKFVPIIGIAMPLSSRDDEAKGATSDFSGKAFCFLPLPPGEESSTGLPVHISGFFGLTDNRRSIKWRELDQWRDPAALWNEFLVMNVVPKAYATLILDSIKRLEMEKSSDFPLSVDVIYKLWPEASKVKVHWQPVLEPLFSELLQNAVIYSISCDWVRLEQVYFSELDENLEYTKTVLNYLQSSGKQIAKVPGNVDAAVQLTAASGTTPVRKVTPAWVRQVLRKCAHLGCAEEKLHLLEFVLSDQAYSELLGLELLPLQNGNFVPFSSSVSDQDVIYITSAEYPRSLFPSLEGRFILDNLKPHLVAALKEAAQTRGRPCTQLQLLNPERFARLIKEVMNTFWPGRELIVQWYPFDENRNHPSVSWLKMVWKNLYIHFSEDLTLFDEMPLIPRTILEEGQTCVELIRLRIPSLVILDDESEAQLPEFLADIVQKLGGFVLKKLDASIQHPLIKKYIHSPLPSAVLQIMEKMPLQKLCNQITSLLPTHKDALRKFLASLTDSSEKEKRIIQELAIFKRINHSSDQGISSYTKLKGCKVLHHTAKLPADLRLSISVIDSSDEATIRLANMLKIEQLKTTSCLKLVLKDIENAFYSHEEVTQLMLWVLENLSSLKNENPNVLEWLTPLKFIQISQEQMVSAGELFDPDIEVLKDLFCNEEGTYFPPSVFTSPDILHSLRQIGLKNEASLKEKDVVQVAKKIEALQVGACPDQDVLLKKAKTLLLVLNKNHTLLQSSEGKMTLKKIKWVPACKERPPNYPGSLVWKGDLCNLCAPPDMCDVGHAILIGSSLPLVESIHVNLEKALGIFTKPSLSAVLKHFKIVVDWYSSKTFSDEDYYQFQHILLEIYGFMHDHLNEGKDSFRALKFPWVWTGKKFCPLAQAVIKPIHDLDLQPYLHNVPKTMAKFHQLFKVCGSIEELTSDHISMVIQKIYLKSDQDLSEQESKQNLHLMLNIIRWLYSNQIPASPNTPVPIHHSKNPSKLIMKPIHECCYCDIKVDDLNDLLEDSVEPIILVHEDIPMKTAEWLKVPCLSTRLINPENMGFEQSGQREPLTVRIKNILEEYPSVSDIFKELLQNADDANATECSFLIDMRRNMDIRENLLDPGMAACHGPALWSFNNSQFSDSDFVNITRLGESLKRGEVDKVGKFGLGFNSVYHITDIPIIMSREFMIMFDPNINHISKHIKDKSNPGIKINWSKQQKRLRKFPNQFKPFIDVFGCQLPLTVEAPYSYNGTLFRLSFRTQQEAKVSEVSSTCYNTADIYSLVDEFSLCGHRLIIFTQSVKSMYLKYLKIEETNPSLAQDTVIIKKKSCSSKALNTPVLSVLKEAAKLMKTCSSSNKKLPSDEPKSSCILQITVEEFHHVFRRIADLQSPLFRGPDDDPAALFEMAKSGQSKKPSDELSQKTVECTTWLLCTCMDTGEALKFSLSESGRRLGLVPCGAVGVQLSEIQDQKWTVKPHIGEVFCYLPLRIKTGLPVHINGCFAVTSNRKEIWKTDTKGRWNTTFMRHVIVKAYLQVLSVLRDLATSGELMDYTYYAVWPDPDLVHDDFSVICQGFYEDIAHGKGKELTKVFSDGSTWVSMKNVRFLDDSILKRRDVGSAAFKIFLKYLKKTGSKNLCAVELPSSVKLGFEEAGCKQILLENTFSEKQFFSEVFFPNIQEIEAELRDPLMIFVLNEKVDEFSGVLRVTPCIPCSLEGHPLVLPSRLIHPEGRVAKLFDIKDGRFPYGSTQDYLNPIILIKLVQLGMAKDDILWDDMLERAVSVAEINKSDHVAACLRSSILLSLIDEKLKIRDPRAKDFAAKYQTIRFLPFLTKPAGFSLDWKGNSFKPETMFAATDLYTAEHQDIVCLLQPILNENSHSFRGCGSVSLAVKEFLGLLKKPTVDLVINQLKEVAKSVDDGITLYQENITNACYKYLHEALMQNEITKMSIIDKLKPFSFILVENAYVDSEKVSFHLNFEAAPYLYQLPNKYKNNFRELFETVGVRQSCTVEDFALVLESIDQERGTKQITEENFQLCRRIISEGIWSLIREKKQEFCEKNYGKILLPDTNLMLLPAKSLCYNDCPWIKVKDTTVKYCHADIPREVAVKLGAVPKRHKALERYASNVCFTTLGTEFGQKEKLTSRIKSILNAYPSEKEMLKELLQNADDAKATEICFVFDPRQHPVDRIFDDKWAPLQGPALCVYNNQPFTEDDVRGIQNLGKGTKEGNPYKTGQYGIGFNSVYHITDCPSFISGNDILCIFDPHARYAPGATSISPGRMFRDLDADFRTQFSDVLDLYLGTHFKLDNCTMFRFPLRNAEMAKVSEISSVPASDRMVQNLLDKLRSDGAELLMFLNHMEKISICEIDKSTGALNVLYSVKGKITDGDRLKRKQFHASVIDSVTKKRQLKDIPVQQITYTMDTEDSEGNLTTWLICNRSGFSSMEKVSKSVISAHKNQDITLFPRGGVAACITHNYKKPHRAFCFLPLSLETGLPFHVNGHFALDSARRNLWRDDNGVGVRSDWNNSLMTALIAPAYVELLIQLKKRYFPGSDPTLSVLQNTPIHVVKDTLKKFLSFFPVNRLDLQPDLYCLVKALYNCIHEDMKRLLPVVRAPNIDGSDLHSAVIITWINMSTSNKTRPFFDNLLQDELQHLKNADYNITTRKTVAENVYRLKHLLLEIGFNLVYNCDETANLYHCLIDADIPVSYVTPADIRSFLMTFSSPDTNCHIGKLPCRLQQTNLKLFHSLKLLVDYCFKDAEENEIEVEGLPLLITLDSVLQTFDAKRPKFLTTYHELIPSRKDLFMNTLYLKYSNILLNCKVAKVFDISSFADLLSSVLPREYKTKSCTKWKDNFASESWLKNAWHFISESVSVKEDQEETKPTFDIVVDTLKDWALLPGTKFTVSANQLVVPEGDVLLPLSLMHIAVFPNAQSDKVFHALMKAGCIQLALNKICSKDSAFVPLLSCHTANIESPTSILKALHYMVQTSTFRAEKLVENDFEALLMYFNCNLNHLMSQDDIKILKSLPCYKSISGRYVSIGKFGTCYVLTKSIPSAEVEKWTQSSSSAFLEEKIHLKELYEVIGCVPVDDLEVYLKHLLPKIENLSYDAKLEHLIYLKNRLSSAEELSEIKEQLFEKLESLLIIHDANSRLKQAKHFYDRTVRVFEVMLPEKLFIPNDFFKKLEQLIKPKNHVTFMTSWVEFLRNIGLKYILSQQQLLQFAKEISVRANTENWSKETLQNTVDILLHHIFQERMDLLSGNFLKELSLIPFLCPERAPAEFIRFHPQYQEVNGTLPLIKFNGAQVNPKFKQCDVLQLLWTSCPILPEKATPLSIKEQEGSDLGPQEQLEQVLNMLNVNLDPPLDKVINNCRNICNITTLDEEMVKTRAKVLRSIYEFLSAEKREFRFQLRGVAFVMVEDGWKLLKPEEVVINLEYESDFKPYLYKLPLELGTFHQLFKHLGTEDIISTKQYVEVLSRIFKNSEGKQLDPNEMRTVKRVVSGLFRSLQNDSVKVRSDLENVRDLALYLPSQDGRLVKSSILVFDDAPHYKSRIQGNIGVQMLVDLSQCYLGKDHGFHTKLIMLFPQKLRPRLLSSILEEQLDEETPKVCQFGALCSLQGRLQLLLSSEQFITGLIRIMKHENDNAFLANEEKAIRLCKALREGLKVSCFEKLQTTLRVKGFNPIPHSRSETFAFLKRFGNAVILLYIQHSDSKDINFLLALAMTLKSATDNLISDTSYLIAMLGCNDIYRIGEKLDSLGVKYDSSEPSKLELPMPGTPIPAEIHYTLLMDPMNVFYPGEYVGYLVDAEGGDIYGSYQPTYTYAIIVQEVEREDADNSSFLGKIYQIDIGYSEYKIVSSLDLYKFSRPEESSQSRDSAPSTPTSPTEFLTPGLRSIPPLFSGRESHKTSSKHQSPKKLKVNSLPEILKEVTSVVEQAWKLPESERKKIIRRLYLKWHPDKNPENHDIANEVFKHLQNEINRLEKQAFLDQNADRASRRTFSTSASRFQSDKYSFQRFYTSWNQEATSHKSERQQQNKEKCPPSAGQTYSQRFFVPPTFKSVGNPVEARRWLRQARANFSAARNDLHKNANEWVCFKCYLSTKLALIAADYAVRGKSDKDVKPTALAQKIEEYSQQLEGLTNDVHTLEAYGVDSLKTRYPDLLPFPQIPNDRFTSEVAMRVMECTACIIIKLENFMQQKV
# The list shows a part of the results. The data scatter; read single values as rough.
# Compound: ClCC(=O)N[C@H]1CCCc2ccccc12
# Assay: log2 mean competition ratio of IA-DTB cysteine labelling (DMSO/compound) (log2 ratio); higher = stronger cysteine engagement by compound
# Settings: 50 µM; treatment time: 4 h; cell line lysate: HEK293T
# Method: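 IA-DTB competitive cysteine chemoproteomics in HEK293T RIPA lysate. Lysates were treated with compound 29 or 30 at 50 or 200 µM for 4 h, then IA-DTB (500 µM, 1 h), trypsin-digested, NeutrAvidin-enriched and analysed by diaPASEF. Competition ratio = intensity DMSO / intensity compound (n=4 treated, n=64 DMSO); binding: mean log2 CR ≥ 1 and p ≤ 0.05 plus QC filters. Target is the cysteine site.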
row,Target,log2 mean competition ratio
1,RPS6KA5 C631 (UniProt O75582),-0.314
2,RTN4R C287 (UniProt Q9BZR6),0.408
3,RTKN C341 (UniProt Q9BST9),-0.014
4,RPL11 C150 (UniProt P62913),0.287
5,RNF213 C2497,0.0822
6,RO60 C71 (UniProt P10155),0.629
7,RPAP2 C277 (UniProt Q8IXW5),-0.318
8,RPRD1B C100 (UniProt Q9NQG5),0.0221
9,RNF169 C103 (UniProt Q8NCN4),0.0309
10,ROCK1 C1070 (UniProt Q13464),0.0528
11,ROGDI C66 (UniProt Q9GZN7),0.245
12,RNMT C225 (UniProt O43148),-0.491
13,RPAP3 C155 (UniProt Q9H6T3),-0.119
14,SACS C4474 (UniProt Q9NZJ4),0.0196
15,RPS15A C30 (UniProt P62244),0.268
16,RPL18A C64 (UniProt Q02543),0.61
17,RRBP1 C1038 (UniProt Q9P2E9),-0.562
18,RPS2 C229 (UniProt P15880),0.501
19,RND3 C34,-0.211
20,RXRB C265 (UniProt P28702),-0.279

# Same assay, conditions: 200 µM; treatment time: 4 h; cell line lysate: HEK293T
row,Target,log2 mean competition ratio
1,RPS6KA5 C631 (UniProt O75582),0.198
2,RTN4R C287 (UniProt Q9BZR6),-0.067
3,RTKN C341 (UniProt Q9BST9),-0.065
4,RPL11 C150 (UniProt P62913),0.116
5,RNF213 C2497,-0.338
6,RO60 C71 (UniProt P10155),0.132
7,RPAP2 C277 (UniProt Q8IXW5),0.329
8,RPRD1B C100 (UniProt Q9NQG5),0.413
9,RNF169 C103 (UniProt Q8NCN4),0.129
10,ROCK1 C1070 (UniProt Q13464),-0.183
11,ROGDI C66 (UniProt Q9GZN7),0.267
12,RNMT C225 (UniProt O43148),-0.0513
13,RPAP3 C155 (UniProt Q9H6T3),-0.102
14,SACS C4474 (UniProt Q9NZJ4),0.0884
15,RPS15A C30 (UniProt P62244),-0.0896
16,RPL18A C64 (UniProt Q02543),-0.324
17,RRBP1 C1038 (UniProt Q9P2E9),0.0275
18,RPS2 C229 (UniProt P15880),-0.0715
19,RND3 C34,0.267
20,RXRB C265 (UniProt P28702),-0.0306
